# Test results as given in the supplement of paper PMC12578635.
# This is one part of the list. No stated cut-off is given here; in the data, active = 150% or more and inactive = the rest. Most values come without repeats; read them as rough.
# Test system: Staphylococcus aureus JE2-lux inside RAW 264.7 macrophages
# Experiment: intracellular bacterial bioluminescence relative to DMSO vehicle; higher = higher intracellular bacterial metabolic activity
# Details: 10 µM; treatment time 4 h; gentamicin 50 µg/ml
row,SMILES,intracellular bacterial bioluminescence
1,Nc1cc(-c2ccccc2)nn1-c1nc(-c2cccc(O)c2)cs1,inactive: 36.2%
2,Cc1cc(C)cc(NC(=O)C2CC3CCCN3C23C(=O)N(C)c2ccccc23)c1 (stereo unspecified),inactive: 87.7%
3,COCCCn1c(SCc2nc(-c3ccccc3)no2)nc2cc3c(cc2c1=O)OCO3,inactive: 112%
4,C=CCNc1nc2c(c(=O)n(C)c(=O)n2C)n1CC(=C)C,inactive: 126%
5,Oc1ncnc2c1c(-c1ccccc1)cn2-c1cccc(Cl)c1,inactive: 94%
6,COc1ccc(C(=O)CSc2nc(C)cc(=O)[nH]2)cc1OC,inactive: 92.5%
7,Cc1ccc(SCCCC(=O)Nc2nc3ccc4sc(C)nc4c3s2)cc1,inactive: 101%
8,O=C(CS(=O)(=O)c1ccc(Cl)cc1)Nc1ccc2scnc2c1,inactive: 120%
9,Cc1cc2cc(C#N)c(SCC(=O)OCc3ccccc3)nc2cc1C,inactive: 109%
10,O=C(CSc1nc2ccccc2nc1-c1ccccc1)Nc1ccc2c(c1)OCO2,inactive: 98.1%
11,CCCCN(C)C(=O)c1ccc(-c2cccc(F)c2)nc1,inactive: 87.2%
12,O=C(Nc1nc2c(s1)CSc1ccccc1-2)c1ccc2c(c1)OCCO2,inactive: 84.5%
13,O=C(COc1ccccc1)N1CCN(c2ccc(N3CCOCC3)nn2)CC1,inactive: 114%
14,Cc1cc(NC(=O)CSc2nncc(=O)n2N)no1,inactive: 107%
15,COc1ccccc1CNc1ncnc(N)c1[N+](=O)[O-],inactive: 95%
16,Cc1ccc(CN(C(=O)CC(C)C)c2nc3[nH]c(C)c(C)c(=O)n3n2)cc1,inactive: 81.1%
17,CCS(=O)(=O)c1nc2ccccc2n1Cc1cccc2ccccc12,inactive: 68.9%
18,Cc1ccc(C(=O)c2sc3nc4c(c(-c5ccco5)c3c2N)CCCCC4)cc1,inactive: 132%
19,N#C/C(C(=O)NCc1ccccc1)=C1/N=C(NC(=O)c2cccnc2)c2ccccc21,inactive: 103%
20,CCOc1ccc(NC(=O)c2oc3ccccc3c2NC(=O)CC2CCCC2)cc1,inactive: 82.5%
21,CCOC(=O)c1cccc(NC(=O)COc2ncnc3oc(C)c(C)c23)c1,inactive: 4.24%
22,Cc1c(C(=O)NC(C(=O)OC(C)(C)C)C(C)C)sc2ncn(C)c(=O)c12 (stereo unspecified),inactive: 108%
23,CCc1nnsc1C(=O)Nc1ccc(S(N)(=O)=O)cc1,inactive: 135%

row,SMILES,intracellular bacterial bioluminescence
1,O=C(Nc1nc2c(s1)COc1ccccc1-2)c1cccc(NS(=O)(=O)c2ccc(F)cc2)c1,inactive: 78.1%
2,CNC(=O)c1ccsc1NC(=O)c1ccc(S(=O)(=O)N2CCCC2)cc1,inactive: 76.4%
3,Nc1cc(OC(=O)c2ccc(F)cc2)nn1S(=O)(=O)c1ccccc1,inactive: 94.8%
4,Cc1cc2oc(C(=O)NCc3ccc4c(c3)OCO4)c(C)c2cc1C,inactive: 92.1%
5,COCCn1ccc2c(OCC(=O)NCc3ccc(C)cc3)cccc2c1=O,inactive: 29.8%
6,COCCNC(=O)C1CCN(c2nc(-c3ccc(Cl)cc3)no2)CC1,inactive: 91.2%
7,Cc1nc2cc(F)ccc2n1C1CCN(C(=O)Nc2ccccc2-c2ccccc2)CC1,inactive: 113%
8,N#Cc1ccccc1NC(=O)C(=O)NCCSc1nc(-c2ccccc2)c[nH]1,inactive: 132%
9,CCOC(=O)C1=C(C)Nc2[nH]c(=O)[nH]c(=O)c2C1c1ccccc1Cl (stereo unspecified),inactive: 118%
10,Cc1cc2oc(C(=O)NC3CCCOC3)cc(=O)c2cc1C (stereo unspecified),inactive: 112%
11,CC(=O)Nc1nc2cc(NC(=O)c3cccnc3)ccc2s1,inactive: 106%
12,O=S(=O)(c1cccc2cccnc12)N1CCN(Cc2noc3ccccc23)CC1,inactive: 92.6%
13,CCOC(=O)c1nn(-c2ccccc2)c(=O)cc1OCC(=O)Nc1cc(OC)cc(OC)c1,inactive: 102%
14,O=C(NCc1ccc2c(c1)OCO2)c1ccc(=O)[nH]n1,inactive: 105%
15,Cc1c(Cc2ccc3c(c2)OCO3)sc(NC(=O)c2ccc(Br)s2)c1C#N,inactive: 52.9%
16,Cc1cccc(-c2nc3c4ccccc4n(CC(=O)Nc4ccccc4Cl)c(=O)n3n2)c1,inactive: 112%
17,CCOC(=O)c1ccccc1NC(=O)CSc1nc2[nH]ncc2c(=O)[nH]1,inactive: 110%
18,COc1ccc(Cl)cc1NC(=O)CSc1nnc2c3cc(C)ccc3n(C)c2n1,inactive: 98.9%
19,Cc1cc2c(c(=O)n1CCCN1CCOCC1)C(c1ccc(Cl)cc1)C(C#N)=C(N)O2 (stereo unspecified),inactive: 121%
20,Cc1cc(C)n(-c2cc(Nc3ccc4c(c3)OCCO4)ncn2)n1,inactive: 4.62%
21,c1coc(-c2nn3c(-c4ccco4)nnc3s2)c1,inactive: 94.2%
22,COc1ccc(CCNC(=O)C(=O)Nc2ccc(F)c(F)c2)cc1,inactive: 100%
23,CCOc1ccc(NC(=S)NCCNc2nc3cc(C)cc(C)c3cc2C#N)cc1,inactive: 80.8%

# Three compounds out of the list, sorted by formula weight, low to high.
row,SMILES,intracellular bacterial bioluminescence
10,Cc1cc2oc(C(=O)NC3CCCOC3)cc(=O)c2cc1C (stereo unspecified),inactive: 112%
2,CNC(=O)c1ccsc1NC(=O)c1ccc(S(=O)(=O)N2CCCC2)cc1,inactive: 76.4%
13,CCOC(=O)c1nn(-c2ccccc2)c(=O)cc1OCC(=O)Nc1cc(OC)cc(OC)c1,inactive: 102%

# Taken from above:
# Value for `Oc1ncnc2c1c(-c1ccccc1)cn2-c1cccc(Cl)c1` under intracellular bacterial bioluminescence: inactive: 94%
# Value for `N#Cc1ccccc1NC(=O)C(=O)NCCSc1nc(-c2ccccc2)c[nH]1` under intracellular bacterial bioluminescence: inactive: 132%

# Later entries:

row,SMILES,intracellular bacterial bioluminescence
1,O=C1NC(c2ccc(F)cc2)C(C(=O)c2cccs2)C(O)(C(F)(F)F)N1 (stereo unspecified),inactive: 86.8%
2,CC(=O)Nc1ccc(NC(=O)c2sc3nc4c(c(-c5ccc(C)cc5)c3c2N)CCC4)cc1,inactive: 95.7%
3,COc1ccc2nc(CN[C@@H]3CCC(=O)N[C@H]3c3cc(F)cc(F)c3)ccc2c1,inactive: 93.9%
4,COc1ccc2cc(C)c3nn(CCNC(=O)c4cscn4)c(=O)n3c2c1,inactive: 81.2%
5,Cn1c(=O)c2c(nc(NCc3ccccc3)n2Cc2cccc3ccccc23)n(C)c1=O,inactive: 113%
6,CCn1/c(=N\C(=O)CS(=O)(=O)c2ccccc2)sc2cc([N+](=O)[O-])ccc21,inactive: 55.4%
7,Cc1nc2nc(Cc3cccc(F)c3)nn2c(NCc2cccs2)c1C,inactive: 91.2%
8,O=C(CCC(=O)Nc1noc2ccccc12)NCCc1ccc(Cl)cc1,inactive: 27.4%
9,O=C(/C=C/c1ccccc1)Nc1nnc(-c2ccc(F)cc2)o1,inactive: 99.7%
10,CCOC(=O)c1sc(NC(=O)CSc2ncnc3sc(C)c(C)c23)c(C(=O)OCC)c1C,inactive: 81%
11,CC(=O)Nc1ccc(NC(=O)c2ncoc2-c2ccc(F)cc2)cc1C,inactive: 119%
12,COC(CNC(=O)c1c(O)nc2ccccn2c1=O)OC,inactive: 123%
13,Cc1nc(Nc2ccccc2)c([N+](=O)[O-])c(Nc2ccccc2)n1,inactive: 117%
14,O=C(c1cnc2ccccc2c1S(=O)(=O)c1cccc(F)c1)N1CCSCC1,inactive: 93.2%
15,O=C(CSc1nc(C2CC2)nc2ccccc12)Nc1ccc2c(c1)OCO2,inactive: 90.5%
16,NC(=O)c1c(NC(=O)/C=C/c2cccs2)sc2c1CCCCC2,inactive: 87%
17,COCCCNC(=O)c1cc(-c2ccc(C)cc2)nc2n[nH]c(-c3ccc(F)cc3)c12,inactive: 134%
18,Cc1nc2nc(Cc3cccc(F)c3)nn2c(N2CCN(Cc3ccc4c(c3)OCO4)CC2)c1C,inactive: 131%
19,Cc1cccc(C2(O)CCN(C(=O)c3sc4ncn(C)c(=O)c4c3C)CC2)c1,inactive: 103%
20,COc1ccc(CC(=O)Nc2cc(NC(=O)c3cccs3)ccc2C)cc1OC,inactive: 80.2%
21,Cc1cc2nc(C3CCN(CC(=O)Nc4ccccc4C(F)(F)F)CC3)[nH]c2cc1C,active: 213%
22,CCOC(=O)c1[nH]c2ccc(OC)cc2c1NC(=S)N1CCN(C(=O)OCC)CC1,inactive: 65.3%
23,CCC(C)Sc1nc2c(c(=O)[nH]1)C(c1cccnc1)C1=C(CC(C)(C)CC1=O)N2 (stereo unspecified),inactive: 106%

row,SMILES,intracellular bacterial bioluminescence
1,COc1cc(NC(=O)c2cnc(C)cn2)ccc1NC(=O)C1CCCCC1,inactive: 105%
2,CC1CCN(C(=O)c2cnc3ccc(Cl)cc3c2O)CC1,inactive: 92.3%
3,Cn1c2ccccc2c2nnc(SCC(=O)Nc3ccc4c(c3)CCC4)nc21,inactive: 6.08%
4,CCCn1cc(C(=O)Nc2ccc3c(c2)OCCO3)c2nn(-c3ccccc3)c(=O)c-2c1,inactive: 84.8%
5,O=C(COc1ccccc1C1CC(c2ccccc2)=NN1C(=O)c1ccccc1)NCCO (stereo unspecified),inactive: 121%
6,O=c1[nH]c(SC/C=C/c2ccccc2)nc2sc3c(c12)CCC3,inactive: 85.4%
7,Cn1c(=O)n(CC(N)=O)c(=O)c2c1nc1n2CCCN1c1ccc(Br)cc1,inactive: 96.7%
8,COc1ccccc1NC(=O)c1cnn2c(=O)cc(C(C)C)[nH]c12,inactive: 89.4%
9,COc1ccc(OC)c2sc(N(CCCn3ccnc3)C(=O)c3ccco3)nc12,inactive: 75.7%
10,COc1ccc(C2=N/C(=C/c3cccnc3)C(=O)O2)cc1OC,inactive: 93.3%
11,O=C(/C=C/c1cccs1)Nc1nc2c(cc3c4c(cccc42)CC3)s1,inactive: 109%
12,COc1ccc(NC2CC(=O)N(c3cc([N+](=O)[O-])ccc3C)C2=O)cc1 (stereo unspecified),inactive: 91.2%
13,O=C(CSC1=NS(=O)(=O)c2ccccc2N1)NCC1CCCO1 (stereo unspecified),inactive: 112%
14,O=C(CSc1ncc(S(=O)(=O)c2ccc(Cl)cc2)c(=O)[nH]1)Nc1ccccc1F,inactive: 111%
15,CC1CCN(S(=O)(=O)c2ccc(C(=O)Nc3cc(C(F)(F)F)ccc3Cl)cc2)CC1,inactive: 118%
16,COCCCNC(=O)Cn1c(-c2cccs2)cc2cccnc21,inactive: 102%
17,CCc1cccc(NC(=O)c2cc3n(n2)CCCN(Cc2ccccc2)C3=O)c1,inactive: 59.5%
18,CCOC(=O)C1=C(C)NC(O)=NC1c1cc(Br)c(O)c(OC)c1 (stereo unspecified),inactive: 79.3%
19,Cc1ccc(-c2nc3c(c(SCC(N)=O)n2)Cc2cc(C)ccc2O3)cc1,inactive: 90.9%
20,Cc1cc2nc(NC(=O)c3ccc(S(=O)(=O)N4CCCC(C)C4)cc3)sc2cc1C (stereo unspecified),inactive: 100%
21,O=C(Nc1cccc(F)c1)c1cnc2n(c1=O)CCS2,inactive: 96.5%
22,COC(=O)C1=C(N)Oc2cc(C)[nH]c(=O)c2C1c1cccc(OC)c1 (stereo unspecified),inactive: 125%
